Experimental data from PubChem BioAssay AID651640 (Broad Institute, 2012).
The campaign covered roughly 350,000 compounds. About 6,000 (1.7%) were called active. Inconclusive results, whose numbers are uncertain, are shown with a selection of clear calls. Rule as the data show it: active = CPE inhibition above about 20% (passing the limit was not always enough); inconclusive = no clear call, values can overlap the other calls; tested in BHK-21 cells.

test: protection of cells from dengue 2 killing – plate reader, single concentration, primary screen (AID 651640); details: DENV2-infected cells, cytopathic effect rescue, at 9.99 µM, stronger effect = higher value;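 also: 0% = median of neutral control wells and 100% = median of positive control wells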

SMILES	CPE inhibition
C[C@H](CO)N1C[C@H](C)[C@H](CN(C)S(=O)(=O)c2ccc(F)cc2)OCCCC[C@H](C)Oc2ccc(NS(=O)(=O)c3ccc(F)cc3)cc2C1=O	inactive: -6.68%
CCNC(=O)C[C@@H]1CC[C@@H]2[C@H](COC[C@@H](O)CN2C(=O)Nc2ccc(Cl)c(Cl)c2)O1	inactive: 2.86%
O=C(Nc1ccccc1)[C@H]1[C@H](CO)[C@H]2Cn3c(cccc3=O)[C@H]2N1C(=O)C1CCC1	inconclusive: 40.6%
CSc1ccccc1C(=O)NCCS(=O)(=O)N1CCN(c2ccc(F)cc2)CC1	inconclusive: 22.9%
O=C(Nc1ccc(C(=O)N2CCCC2)cc1)C1CCCC1	inconclusive: 52.6%
O=C(Nc1cccc(Cl)c1)N1C[C@@H]2[C@H](c3ccccc31)[C@H](CO)N2Cc1ccncc1	inactive: -4.1%
C[C@H](CO)N1C[C@H](C)[C@H](CN(C)S(=O)(=O)c2cn(C)cn2)Oc2c(NC(=O)Nc3ccccc3)cccc2C1=O	inactive: 0.462%
COc1ccc(NC(=O)Nc2cccc3c2O[C@@H](CN(C)C(=O)Nc2ccc4c(c2)OCO4)[C@@H](C)CN([C@@H](C)CO)C3=O)cc1	active: 27.1%
COC(=O)N1C(=O)[C@](c2ccsc2)(C(C)C)N1C(=O)OC	active: 47.8%
COCCOc1ccc(C(F)(F)F)cc1NC(=O)COC(=O)c1ccc(N2CCCC2=O)cc1	inconclusive: 20.4%
C[C@H]1CN([C@@H](C)CO)C(=O)c2cc(-c3cccc(F)c3)cnc2O[C@@H]1CN(C)Cc1ccccn1	inconclusive: 27.8%
COc1ccc(CN(C)C[C@@H]2OCCCC[C@H](C)Oc3ccc(NC(=O)CCCN(C)C)cc3C(=O)N([C@@H](C)CO)C[C@H]2C)cc1	inactive: -6.7%
CC(C)(O)C#Cc1ccc([C@H]2[C@H](CO)N3CCCCN(C(=O)c4ccc(F)cc4)C[C@@H]23)cc1	active: 21.2%
CC(OC(=O)CCCN=C1NS(=O)(=O)c2ccccc21)C(=O)NC1CCCCC1C (centres undefined)	inconclusive: 26.2%
CCOC(=O)C1(CCCc2ccccc2)CCN(C(=O)CSC)CC1	inactive: -1.78%
C[C@@H]1CCCCO[C@H](CN(C)C(=O)NC2CCCCC2)[C@H](C)CN([C@H](C)CO)C(=O)c2cc(N(C)C)ccc2O1	inconclusive: 20.5%
C[C@H]1CN([C@@H](C)CO)C(=O)c2cc(C#CC3CC3)cnc2O[C@@H]1CN(C)S(C)(=O)=O	inactive: 3.35%
O=C(CCC(=O)c1ccc(F)cc1)NN1C(=O)NC2(CCCCC2)C1=O	inactive: 3.49%
CCCNC(=O)N[C@H]1C=C[C@H](CC(=O)N2CCN(C)CC2)O[C@@H]1CO	active: 24.5%
CC1(c2nnc(-c3ccc(Cl)cc3)o2)CC(c2ccncc2)=NO1 (centres undefined)	inconclusive: 52.5%
O=C(/C=C/c1ccc(Cl)c([N+](=O)[O-])c1)Nc1ccc(NC(=O)c2ccco2)cc1	inactive: 2.29%
N#Cc1ccc(-c2ccc3c(c2)[C@@H]2[C@@H](CCN2C(=O)Cc2ccccc2)[C@@H](CO)N3)cc1	inconclusive: 64.7%

Single values from the results shown:
CPE inhibition with C[C@H](CO)N1C[C@H](C)[C@H](CN(C)S(=O)(=O)c2ccc(F)cc2)OCCCC[C@H](C)Oc2ccc(NS(=O)(=O)c3ccc(F)cc3)cc2C1=O is entered as inactive: -6.68%
CPE inhibition with O=C(Nc1cccc(Cl)c1)N1C[C@@H]2[C@H](c3ccccc31)[C@H](CO)N2Cc1ccncc1 is entered as inactive: -4.1%
CPE inhibition with CC(C)(O)C#Cc1ccc([C@H]2[C@H](CO)N3CCCCN(C(=O)c4ccc(F)cc4)C[C@@H]23)cc1 is entered as active: 21.2%

Additional records follow.

SMILES	CPE inhibition
CCOC(=O)c1ccc(-c2c(-c3ccc4c(c3)OCO4)noc2-c2ccsc2)cc1F	inactive: -14.9%
COc1cc(C(=O)NCC(c2ccccc2)N(C)C)ccc1OCc1c(C)noc1C (centres undefined)	inconclusive: 27.1%
Nc1cc2c(cc1Cl)-c1ccc(Cl)cc1C2	inconclusive: 26.3%
C[C@@H]1CN([C@H](C)CO)C(=O)c2cc(NS(=O)(=O)c3ccc(F)cc3)ccc2O[C@@H](C)CCCCO[C@H]1CN(C)S(=O)(=O)c1cccs1	inconclusive: 32.1%
CC12CCC(C(=NO)C1=NO)C2(C)C (centres undefined)	inconclusive: 34.6%
C[C@H](CO)N1C[C@H](C)[C@@H](CN(C)C)Oc2ncc(/C=C/c3ccccc3)cc2C1=O	inactive: 4.31%
C[C@H](CO)N1C[C@H](C)[C@H](CN(C)C(=O)C2CC2)Oc2cc(Br)ccc2S1(=O)=O	inconclusive: 20.4%
C=CCC[C@H](CCCCC)OC(=O)/C=C/[C@H](O)[C@@H](O)C[C@@H](O)CC=C	inconclusive: 28.9%
COc1ccc2c3c([nH]c2c1)[C@@H](CO)N(C(=O)c1ccccn1)CC31CCN(C(=O)C2CC2)CC1	inconclusive: 51.9%
CCN(CC(=O)Nc1c(F)cccc1F)C(=O)Cc1ccc2c(c1)CCC2	inconclusive: 36.6%
CC(C)(C)c1ccc(C(=O)NC(=S)N2CCCC2)cc1	inconclusive: 46.3%
CCC(=O)Nc1ccc(S(=O)(=O)NC[C@H]2O[C@@H](n3cnc4c(=O)[nH]c(N)nc43)[C@H](O)[C@@H]2O)cc1	inconclusive: 83.8%
C[C@H](CO)N1C[C@H](C)[C@@H](CN(C)CC2CC2)Oc2ccc(NS(=O)(=O)c3ccccc3)cc2C1=O	inconclusive: 30.3%
CC(C)(C)OC(=O)N(Cc1ccccc1)Cc1ccccc1OCc1ccc(NC(=O)C2CCC2)cc1	active: 27.6%
CC(C)(C)c1cc(C(=O)NCCCn2ccnc2)cc(C(C)(C)C)c1	inconclusive: 34.3%
CC(C)NC(=O)N(C)C[C@@H]1Oc2ccc(NC(=O)Nc3ccc(C(F)(F)F)cc3)cc2C(=O)N([C@@H](C)CO)C[C@H]1C	inconclusive: 47.2%
CN1CCN(C(=O)C[C@@H]2CC[C@H]3[C@@H](COc4ccc(NC(=O)C5CCCCC5)cc4C(=O)N3C)O2)CC1	inactive: -6.25%
CNC(=O)C[C@H]1CC[C@H]2[C@H](COc3ccc(NC(=O)Nc4ccc(C)cc4)cc3C(=O)N2C)O1	inactive: 6.4%
CN1CCN(c2ccc(NC(=O)c3ccc(Cl)cc3Cl)cc2)CC1	inconclusive: 20.8%
CO[C@H]1CN(C)C(=O)c2cc(NS(=O)(=O)c3ccccc3)ccc2OC[C@H](C)NC[C@@H]1C	active: 27.3%
C[C@H]1CN([C@@H](C)CO)C(=O)Cc2cc(NS(=O)(=O)c3ccc(Cl)cc3)ccc2O[C@@H]1CN(C)Cc1ccc2c(c1)OCO2	active: 23.4%
O=C(NCC1CCOCC1)c1cccc2c(-c3cccnc3)coc12	inconclusive: 22.4%
